Reference: the supplement of paper PMC8253809
For some of these results: What follows is the remainder of the data, with few or none of the strong results. The entries are a selection whose mix differs from that of the whole data set.

Assays:
Test in all cases: growth inhibition (% activity, log2 RLU normalised to DMSO / staurosporine); higher = more growth inhibition
Settings in all cases: 33 µM
[1] = test system: DIPGX29 (H3.3 K27M diffuse intrinsic pontine glioma line)
In short: (§1)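 pHGG cell lines and H9-derived neural stem cells were grown on Geltrex-coated 384-well plates. Approved drugs were added by pin tool at a single final concentration of about 33 μM, in triplicate, for 7 days at 37 °C, 5% CO2. CellTiter-Glo luminescence was log2-transformed and normalised per plate to % activity between solvent and positive control wells. The growth-inhibition value is the median over replicates.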

[2] = test system: DIPGX37 (H3.3 K27M diffuse intrinsic pontine glioma line)
In short: as §1

[3] = test system: DIPGX7 (H3.3 K27M diffuse intrinsic pontine glioma line)
In short: as §1

[4] = test system: DIPGX9 (diffuse intrinsic pontine glioma line)
In short: as §1

[5] = test system: HGGX39 (paediatric high-grade glioma line)
In short: as §1

[6] = test system: HGGX6 (H3.3 G34R paediatric high-grade glioma line)
In short: as §1

[7] = test system: HNSC
In short: as §1

[8] = test system: SUDIPGIV (diffuse intrinsic pontine glioma line)
In short: as §1

[9] = test system: SUDIPGVI (diffuse intrinsic pontine glioma line)
In short: as §1

[10] = test system: SUDIPGXIII (diffuse intrinsic pontine glioma line)
In short: as §1

`CN1C2CCC1CC(OC(=O)C(O)c1ccccc1)C2` (stereo not given) was tested, and the growth inhibition [1] was 0.526%, the growth inhibition [2] was 0.508% and the growth inhibition [3] was 1.7%. For the same molecule, the growth inhibition [4] was -0.86%, the growth inhibition [5] was 1.69% and the growth inhibition [6] was 2.09%. It also gave a growth inhibition [7] of 0.106%, a growth inhibition [8] of 1.05% and a growth inhibition [9] of -0.212%. For the same molecule, the growth inhibition [10] was 0.397%.
